According to the supplement of paper PMC12819154, “High-throughput peptide-centric local stability assay extends protein–ligand identification to membrane proteins, tissues and bacteria” (Nature Structural & Molecular Biology, 2025):
Some of the results follow. Most entries show no effect beyond the scatter of the controls.

By UniProt entry, the sequences of proteins in these tests, tags left out. Where a name states a change or a piece, a line headed by the entry shows the natural chain unless it says otherwise.
UniProt P0C7T7: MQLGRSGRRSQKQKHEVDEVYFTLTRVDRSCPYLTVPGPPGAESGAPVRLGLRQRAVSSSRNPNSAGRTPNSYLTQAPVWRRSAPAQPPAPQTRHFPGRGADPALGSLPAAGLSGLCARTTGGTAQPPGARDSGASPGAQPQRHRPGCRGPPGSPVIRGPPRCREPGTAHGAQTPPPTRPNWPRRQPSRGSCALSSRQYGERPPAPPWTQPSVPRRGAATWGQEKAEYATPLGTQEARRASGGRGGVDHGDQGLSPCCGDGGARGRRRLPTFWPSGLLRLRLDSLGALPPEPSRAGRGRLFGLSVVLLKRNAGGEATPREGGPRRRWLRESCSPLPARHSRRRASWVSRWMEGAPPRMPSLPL
UniProt P0DPB6, whole entry: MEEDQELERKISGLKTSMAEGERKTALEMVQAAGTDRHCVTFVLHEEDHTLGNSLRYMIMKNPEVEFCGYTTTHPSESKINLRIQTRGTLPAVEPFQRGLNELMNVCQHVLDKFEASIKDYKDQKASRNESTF
UniProt P09661: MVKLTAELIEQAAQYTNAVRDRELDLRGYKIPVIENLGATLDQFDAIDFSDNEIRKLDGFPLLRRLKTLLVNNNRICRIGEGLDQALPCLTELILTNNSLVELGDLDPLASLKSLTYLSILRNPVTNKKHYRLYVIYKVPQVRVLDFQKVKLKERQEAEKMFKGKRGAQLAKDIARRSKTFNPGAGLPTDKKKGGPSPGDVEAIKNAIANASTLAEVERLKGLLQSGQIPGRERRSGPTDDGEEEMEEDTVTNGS
UniProt P0DTL6: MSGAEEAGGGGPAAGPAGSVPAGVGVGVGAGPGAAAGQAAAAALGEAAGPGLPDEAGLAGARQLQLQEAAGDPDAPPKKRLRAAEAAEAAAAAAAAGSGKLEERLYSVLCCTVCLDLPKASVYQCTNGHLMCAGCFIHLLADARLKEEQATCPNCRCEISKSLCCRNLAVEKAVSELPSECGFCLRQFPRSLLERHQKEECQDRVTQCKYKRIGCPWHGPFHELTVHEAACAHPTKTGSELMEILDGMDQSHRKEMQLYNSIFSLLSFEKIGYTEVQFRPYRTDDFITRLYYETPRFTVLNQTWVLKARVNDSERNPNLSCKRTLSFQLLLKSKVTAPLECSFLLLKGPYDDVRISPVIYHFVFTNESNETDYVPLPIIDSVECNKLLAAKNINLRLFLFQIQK
UniProt P08754, whole entry: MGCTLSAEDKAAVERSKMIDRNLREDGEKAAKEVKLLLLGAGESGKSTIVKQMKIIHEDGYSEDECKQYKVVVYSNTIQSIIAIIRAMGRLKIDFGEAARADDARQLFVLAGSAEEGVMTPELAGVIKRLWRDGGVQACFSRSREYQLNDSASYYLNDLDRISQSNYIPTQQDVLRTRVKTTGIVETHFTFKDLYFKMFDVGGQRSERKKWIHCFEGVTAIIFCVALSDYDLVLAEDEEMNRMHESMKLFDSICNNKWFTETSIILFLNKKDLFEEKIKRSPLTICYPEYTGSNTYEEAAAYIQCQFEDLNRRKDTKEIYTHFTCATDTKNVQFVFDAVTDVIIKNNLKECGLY
UniProt O96028: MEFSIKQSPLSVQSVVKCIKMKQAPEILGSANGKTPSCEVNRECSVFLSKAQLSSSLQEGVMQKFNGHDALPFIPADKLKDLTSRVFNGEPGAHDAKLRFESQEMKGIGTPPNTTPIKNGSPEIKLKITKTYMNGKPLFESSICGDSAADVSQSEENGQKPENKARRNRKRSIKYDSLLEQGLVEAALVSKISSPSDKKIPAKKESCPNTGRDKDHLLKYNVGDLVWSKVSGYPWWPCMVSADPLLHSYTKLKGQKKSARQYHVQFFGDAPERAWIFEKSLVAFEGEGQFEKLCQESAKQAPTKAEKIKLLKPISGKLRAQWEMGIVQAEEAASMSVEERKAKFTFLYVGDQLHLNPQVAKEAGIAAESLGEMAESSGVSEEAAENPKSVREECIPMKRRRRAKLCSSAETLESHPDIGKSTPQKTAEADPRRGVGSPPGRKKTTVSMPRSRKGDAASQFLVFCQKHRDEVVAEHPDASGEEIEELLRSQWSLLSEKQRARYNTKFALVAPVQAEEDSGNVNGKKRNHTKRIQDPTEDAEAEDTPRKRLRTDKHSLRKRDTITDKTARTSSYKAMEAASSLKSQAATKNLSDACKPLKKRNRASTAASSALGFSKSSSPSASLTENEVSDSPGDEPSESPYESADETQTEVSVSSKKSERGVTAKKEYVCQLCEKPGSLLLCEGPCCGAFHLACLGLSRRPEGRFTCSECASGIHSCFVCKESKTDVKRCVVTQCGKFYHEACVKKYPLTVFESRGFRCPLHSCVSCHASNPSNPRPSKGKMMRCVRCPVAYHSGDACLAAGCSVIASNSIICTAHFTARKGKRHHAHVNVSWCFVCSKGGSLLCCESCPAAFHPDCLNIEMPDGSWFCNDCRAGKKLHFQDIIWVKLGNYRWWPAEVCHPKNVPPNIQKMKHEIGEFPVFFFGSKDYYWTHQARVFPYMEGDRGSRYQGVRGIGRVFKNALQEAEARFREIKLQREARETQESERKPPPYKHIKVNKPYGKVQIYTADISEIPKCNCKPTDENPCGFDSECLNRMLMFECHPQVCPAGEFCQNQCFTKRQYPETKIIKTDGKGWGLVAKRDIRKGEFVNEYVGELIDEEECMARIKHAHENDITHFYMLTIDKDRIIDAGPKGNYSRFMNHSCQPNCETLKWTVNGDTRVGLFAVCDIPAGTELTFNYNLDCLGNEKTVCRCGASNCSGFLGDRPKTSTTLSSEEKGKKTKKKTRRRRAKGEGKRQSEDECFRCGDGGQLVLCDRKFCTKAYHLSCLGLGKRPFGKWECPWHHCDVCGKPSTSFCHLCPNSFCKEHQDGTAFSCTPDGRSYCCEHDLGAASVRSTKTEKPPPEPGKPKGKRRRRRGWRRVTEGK
UniProt P09429: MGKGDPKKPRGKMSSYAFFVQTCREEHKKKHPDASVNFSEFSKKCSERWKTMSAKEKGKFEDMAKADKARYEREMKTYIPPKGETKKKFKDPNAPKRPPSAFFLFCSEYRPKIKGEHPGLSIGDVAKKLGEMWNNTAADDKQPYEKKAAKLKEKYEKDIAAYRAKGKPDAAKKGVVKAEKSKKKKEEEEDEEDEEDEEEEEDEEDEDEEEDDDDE
UniProt P09012, whole entry: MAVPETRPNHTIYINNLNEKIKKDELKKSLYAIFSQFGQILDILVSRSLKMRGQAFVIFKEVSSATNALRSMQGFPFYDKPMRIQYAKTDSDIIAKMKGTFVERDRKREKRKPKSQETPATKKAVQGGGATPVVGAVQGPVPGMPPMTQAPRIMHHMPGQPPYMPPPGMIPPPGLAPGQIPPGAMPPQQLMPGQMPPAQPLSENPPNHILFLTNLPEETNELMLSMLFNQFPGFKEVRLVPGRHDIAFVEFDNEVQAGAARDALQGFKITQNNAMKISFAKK
UniProt P09651: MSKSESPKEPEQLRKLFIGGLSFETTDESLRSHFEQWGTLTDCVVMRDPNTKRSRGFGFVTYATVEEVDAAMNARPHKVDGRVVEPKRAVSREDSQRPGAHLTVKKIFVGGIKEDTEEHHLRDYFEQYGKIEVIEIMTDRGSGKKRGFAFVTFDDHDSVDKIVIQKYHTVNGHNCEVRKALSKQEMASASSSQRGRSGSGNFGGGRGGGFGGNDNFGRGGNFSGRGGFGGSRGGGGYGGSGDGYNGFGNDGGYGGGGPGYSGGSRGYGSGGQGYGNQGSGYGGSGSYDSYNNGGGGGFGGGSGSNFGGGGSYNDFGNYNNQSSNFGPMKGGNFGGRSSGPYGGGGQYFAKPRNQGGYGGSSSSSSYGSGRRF

What follows are targets tested with CN[C@@H]1C[C@H]2O[C@@](C)([C@@H]1OC)n1c3ccccc3c3c4c(c5c6ccccc6n2c5c31)C(=O)NC4 [staurosporine] (assay: log2 fold change of tryptic peptide abundance, ligand vs vehicle (limited proteolysis) (log2 ratio); higher = more trypsin-susceptible (destabilized)). Settings: ligand concentration: 20 uM; sample: K562 cleared lysate; digestion: 4 min, 22 C (HT-PELSA RT4min, Orbitrap Astral).
For “UniProt P0C7T7 (peptide sequence: SAPAQPPAPQTR, peptide start residue: 83)”, the log2 fold change was 0.234.
“POLR1D (peptide sequence: GLNELMNVCQHVLDKFEASIK, peptide start residue: 99) (UniProt P0DPB6)” showed a log2 fold change of -0.441.
“SNRPA1 (peptide sequence: NAIANASTLAEVER, peptide start residue: 206) (UniProt P09661)” showed a log2 fold change of -0.13.
Work on “E9PJD7 (peptide sequence: AAEAAEAAAAAAAAGSGKLEER, peptide start residue: 83) (UniProt P0DTL6)” yielded a log2 fold change of -0.159.
“ATP1A1 (peptide sequence: YEPAAVSEQGDKK, peptide start residue: 10) (UniProt P05023)” showed a log2 fold change of -0.475.
Work on “GNAI3 (peptide sequence: MFDVGGQR, peptide start residue: 199) (UniProt P08754)” yielded a log2 fold change of 0.198.
“UniProt O96028 (peptide sequence: HAHENDITHFYMLTIDKDR, peptide start residue: 1108)” was tested, and the log2 fold change was 0.841.
“HMGB1 (peptide sequence: YEKDIAAYR, peptide start residue: 155) (UniProt P09429)” gave a log2 fold change of 0.167.
“SNRPA (peptide sequence: MKGTFVER, peptide start residue: 97) (UniProt P09012)” showed a log2 fold change of 0.206.
“HNRNPA1 (peptide sequence: SESPKEPEQLR, peptide start residue: 4) (UniProt P09651)” gave a log2 fold change of -0.0667.
